Laboratory results reported in article PMC2816692, “Structural and Biochemical Characterization of SrcA, a Multi-Cargo Type III Secretion Chaperone in Salmonella Required for Pathogenic Association with a Host” (PLoS Pathogens, 2010).
Results are given in words; binding and its absence hold for the method and conditions named. Binding can be weak; no strength is given.

Molecular target: His-tagged SsaNΔ89 (SPI-2 T3SS ATPase SsaN, residues Q90-E433) (Salmonella enterica serovar Typhimurium) (UniProt P74857)
Experiment: SEC; 320 µl SrcA (0.1 mg/ml) mixed with 40.8 µl SsaN (8.84 mg/ml) at room temperature for 2 h; Superdex S200 10/300GL; peaks verified by anti-His western blot and LC-MS/MS; both purified

“His-tagged SrcA (SsrB-regulated chaperone A, STM2138) (from UniProt Q8ZNP3)” was tested, and the binding was “binds”.
